# Measured values published in patent publication US20070231333A1, “ANTI-5T4 ANTIBODIES AND USES THEREOF” (Wyeth, priority 2006, published 2007).
# B1: A2: murine anti-5T4 monoclonal antibody (IgG2b heavy chain); VH residues 19-135 of SEQ ID NO:6, VL residues 23-130 of SEQ ID NO:8 (antibody, listed as Mus musculus, V domains shown)
# VH: MEWRIFLFILSGTAGVHSQVQLQQSRPELVKPGASVKMSCKASGYTFTDYVISWVKQRTGQGLEWIGEIYPGSNSIYYNEKFKGRATLTADKSSSTAYMQLSSLTSEDSAVYFCAMGGNYGFDYWGQGTTLTVSS
# VL: MDFQVQIFSFLLISASVIMSRGQIVLTQSPAIMSASLGERVTLTCTASSSVNSNYLHWYQQKPGSSPKLWIYSTSNLASGVPARFSGSGSGTSYSLTISSMEAEDAATYYCHQYHRSPLTFGAGTKLELK
# modifications: (1)..(18) leader sequence; (19)..(135) heavy chain variable region; (44)..(53) CDR1; (68)..(84) CDR2; (117)..(124) CDR3; (1)..(22) leader sequence; (23)..(130) light chain variable region; (46)..(56) CDR1; (73)..(79) CDR2; (112)..(120) CDR3
# Test system: human 5T4
# Experiment: Epitope assignment on human 5T4 from the mapping studies (chimeras, mutations, BIACORE)
# Assay type: binding
molecule,measurement,setting,value
B1,residues of human 5T4 specifically bound,"as stated in the detailed description, Examples 4-5, FIGS. 6-7",224-355
same,region of human 5T4 bound (epitope),"from 5T4 chimera ELISA, Example 4",between residues 282 and 361
